In paper PMC3694053:
Results are given in words; binding and its absence hold for the method and conditions named. In cells and extracts the contact can be indirect. Binding calls can cover weak binding; strength is not graded here. For part of these data: Tags and fused reporters may be left off the sequences shown.

Amino acid sequences for entries named in this document (tags omitted).
UniProt Q15208: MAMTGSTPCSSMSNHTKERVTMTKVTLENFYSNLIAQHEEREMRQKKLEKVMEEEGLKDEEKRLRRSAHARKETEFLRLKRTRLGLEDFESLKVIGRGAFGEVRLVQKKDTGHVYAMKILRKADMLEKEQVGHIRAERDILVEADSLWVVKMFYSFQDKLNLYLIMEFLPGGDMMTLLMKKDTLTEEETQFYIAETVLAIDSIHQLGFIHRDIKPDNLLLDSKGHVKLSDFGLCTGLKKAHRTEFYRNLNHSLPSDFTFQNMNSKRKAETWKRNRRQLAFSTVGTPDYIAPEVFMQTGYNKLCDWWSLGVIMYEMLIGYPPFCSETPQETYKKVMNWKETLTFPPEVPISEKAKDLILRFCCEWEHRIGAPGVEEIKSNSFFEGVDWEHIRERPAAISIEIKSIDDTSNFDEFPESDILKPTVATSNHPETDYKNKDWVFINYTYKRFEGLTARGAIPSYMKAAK

Experiments:
[1] = target: HA-NDR1 (UniProt Q15208); assay: co-IP; 293T cells expressing Rluc-SnoN (wild type or deletion mutants) alone or with HA-NDR1; immunoprecipitation with the HA antibody, Renilla luciferase activity of the immunoprecipitate normalised to Rluc-SnoN and NDR1 expression
[2] = target: T1, MYC-SnoN (UniProt P12757); assay: co-IP; 293T cells expressing Rluc-NDR1 (wild type or deletion mutants) alone or with MYC-SnoN; immunoprecipitation with the MYC or SnoN antibody, Renilla luciferase activity of the immunoprecipitate normalised to expression
T1 sequence: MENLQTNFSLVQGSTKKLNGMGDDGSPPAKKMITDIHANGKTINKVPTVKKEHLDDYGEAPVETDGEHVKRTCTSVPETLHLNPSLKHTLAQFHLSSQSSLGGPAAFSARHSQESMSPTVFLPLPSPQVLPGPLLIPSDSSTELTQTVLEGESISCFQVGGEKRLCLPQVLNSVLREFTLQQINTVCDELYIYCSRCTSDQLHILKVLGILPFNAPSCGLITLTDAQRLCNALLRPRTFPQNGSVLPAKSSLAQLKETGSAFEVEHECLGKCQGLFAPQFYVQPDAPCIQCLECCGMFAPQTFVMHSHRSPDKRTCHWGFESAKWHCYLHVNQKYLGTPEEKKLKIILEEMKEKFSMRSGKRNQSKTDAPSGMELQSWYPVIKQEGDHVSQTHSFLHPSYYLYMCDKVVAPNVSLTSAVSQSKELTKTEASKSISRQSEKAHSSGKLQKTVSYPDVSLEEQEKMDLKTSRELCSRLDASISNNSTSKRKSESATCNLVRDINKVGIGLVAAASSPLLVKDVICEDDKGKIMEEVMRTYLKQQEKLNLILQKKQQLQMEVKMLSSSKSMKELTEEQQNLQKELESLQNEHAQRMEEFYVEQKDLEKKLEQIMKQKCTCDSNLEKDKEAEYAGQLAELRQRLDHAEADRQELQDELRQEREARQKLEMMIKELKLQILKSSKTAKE

| Substance | binding [1] | binding [2] |
| --- | --- | --- |
| Rluc-SnoN with deletion of amino acid residues 366–684 (from UniProt P12757-1) (domain or fragment) | binds | – |
| Rluc-NDR1 with deletion of the C-terminal regulatory region (domain or fragment) | – | binds |
| Rluc-SnoN with deletion of amino acid residues 1–366 (from UniProt P12757-1) (domain or fragment) | binds | – |
